Out of some 390,000 compounds screened, about 820 (0.21%) were called active. The shares of active, inactive and inconclusive entries below differ from those in the screen. Calls come from the whole dose curve; as a rule, active = well fitted inhibition curve with a large enough effect; inconclusive = small, poorly fitted or top-dose-only effect, or another doubt; inactive = no such curve, though single readings can be large or run the other way. A potency beside an inconclusive call is a rough fit, not a confirmed value.
target: Histone acetyltransferase KAT2A (Homo sapiens) (UniProt Q92830); test: qHTS Assay for Inhibitors of GCN5L2; details: GCN5L2 HAT assay, ThioGlo1 CoA-SH fluorescence; activity change, negative = inhibition: at 58.9 µM (top of the series) unless noted
Summary of the method: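 ThioGlo1-coupled HAT assay: 20nM GCN5L2, 70uM acetyl-CoA, 75uM H3(1-25) peptide, pH 7.5. Fluorescence read at 340/540nm at start and after 20 min at room temperature.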
% is set by controls: 0 for no effect and ±100 for the full control effect; potency is the fitted concentration of half-maximal effect.

By UniProt entry, the sequences of proteins in these tests, tags left out.
UniProt Q92830, whole entry, looked up: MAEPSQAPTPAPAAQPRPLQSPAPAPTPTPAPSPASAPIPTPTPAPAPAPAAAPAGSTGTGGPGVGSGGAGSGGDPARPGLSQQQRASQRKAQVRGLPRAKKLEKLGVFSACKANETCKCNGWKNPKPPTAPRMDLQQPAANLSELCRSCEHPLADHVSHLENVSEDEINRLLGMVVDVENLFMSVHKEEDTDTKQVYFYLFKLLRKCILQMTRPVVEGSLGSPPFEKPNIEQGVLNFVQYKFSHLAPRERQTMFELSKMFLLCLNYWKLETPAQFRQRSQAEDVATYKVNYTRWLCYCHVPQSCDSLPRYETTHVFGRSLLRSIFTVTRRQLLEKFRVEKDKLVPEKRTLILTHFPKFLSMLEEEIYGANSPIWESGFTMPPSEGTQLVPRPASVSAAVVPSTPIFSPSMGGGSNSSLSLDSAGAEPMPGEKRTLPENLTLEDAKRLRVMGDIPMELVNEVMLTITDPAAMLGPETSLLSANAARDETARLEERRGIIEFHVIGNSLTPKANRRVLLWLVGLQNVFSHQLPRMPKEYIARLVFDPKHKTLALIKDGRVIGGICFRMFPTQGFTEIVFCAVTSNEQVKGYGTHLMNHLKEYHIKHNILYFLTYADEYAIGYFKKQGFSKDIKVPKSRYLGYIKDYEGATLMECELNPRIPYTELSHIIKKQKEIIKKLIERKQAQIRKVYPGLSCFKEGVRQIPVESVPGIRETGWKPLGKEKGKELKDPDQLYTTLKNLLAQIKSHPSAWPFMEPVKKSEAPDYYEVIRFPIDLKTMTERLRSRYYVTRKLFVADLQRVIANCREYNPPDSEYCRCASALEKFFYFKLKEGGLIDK

SMILES | Potency | activity change, negative = inhibition
COc1cc(NS(=O)(=O)c2csc(C(N)=O)c2)cc(OC)c1 | inconclusive: 7.08 µM [inhibitor, single point] | –
CCN1C=CC(=C2C(=O)c3ccccc3C2=O)C=C1 | inconclusive: 39.8 µM [inhibitor, single point] | –
CC(=O)c1ccc(NC(=O)CCc2nc3sc4c(c3c(=O)[nH]2)CCCC4)cc1 | inconclusive: 31.6 µM [inhibitor, single point] | –
COCCNCC(=O)Nc1ccc(C)c(S(=O)(=O)N2CCCCC2)c1 | – | inactive: -18.7%
O=C(Nc1ccccc1)N1CCCN(c2nccc(C(F)(F)F)n2)CC1 | – | inactive: -5.68%
O=C(O)c1ccc(Cl)c2c1C1C=CCC1C(c1ccccn1)N2 (centres undefined) | inconclusive: 25.1 µM [inhibitor, partial curve] | –
O=C(NC1CCCC1)C1CCN(C(=O)c2ccc(-c3ccccc3)cc2)CC1 | inconclusive: 0.158 µM [inhibitor, partial curve, poor fit] | –
Cc1cccc(CN2CCN(C(=O)CCc3nnc(C4CCCCC4)o3)CC2)c1 | inconclusive: 39.8 µM [inhibitor, single point] | –
COc1cc(NC(=O)COC(=O)CNC(=O)C23CC4CC(CC(C4)C2)C3)cc(OC)c1 | inconclusive: 3.98 µM [inhibitor, single point] | –
COCCN(C(=O)COC(=O)CCCOc1ccc(OC)cc1)c1c(N)n(Cc2ccccc2)c(=O)[nH]c1=O | inconclusive: 20 µM [inhibitor, partial curve] | –
COc1ccc(C2C(=O)N(C3CCC(C)CC3)CC(=O)N2CCC2=CCCCC2)cc1OC (centres undefined) | – | inactive: -3.28%
N=C1/C(=C/c2ccc(-c3cccc(C(=O)O)c3)o2)C(=O)N=C2SC=C(c3ccccc3)N12 | active: 22.4 µM | –
O=C(CSc1nc2ccncc2[nH]1)Nc1ccccc1C(F)(F)F | – | inactive: -0.86%
CN(CC(=O)Nc1ccccc1Br)C(=O)CCC1CCCC1 | inconclusive: 0.141 µM [inhibitor, full curve, poor fit] | –
COc1cc(NC(=S)N2CCN(CCO)CC2)c(OC)cc1Cl | – | inactive: 0.647%
Cc1cc(OCc2cc(C(=O)N(C)CCc3cnn(C)c3)no2)cc(C)c1Cl | – | inactive: -5.75%
N#Cc1ccccc1NC(=O)c1cnc(N2CCOCC2)c2ccccc12 | – | inactive: -4.87%
CCOC(=O)CN1C(=O)S/C(=C\c2ccc(-c3ccc(C(=O)O)c(Cl)c3)o2)C1=O | inconclusive: 10 µM [inhibitor, partial curve] | –
COc1ccc(C(=O)C(C)[n+]2ccc(C)c3ccccc32)cc1[N+](=O)[O-] (centres undefined) | – | inactive: -2.43%
S=C(NCc1ccco1)Nc1ccc(Br)cn1 | inconclusive: 2.51 µM [inhibitor, partial curve] | –
COc1ccc(N2CCN(C(=O)C3CCCN3S(=O)(=O)c3cccc4nsnc34)CC2)cc1 (centres undefined) | – | inactive: -0.611%
O=C(COc1ccccc1Cl)Nc1cc(Cl)ccc1Oc1ccccc1 | inconclusive: 31.6 µM [inhibitor, single point] | –

SMILES | Potency | activity change, negative = inhibition
NC(=O)[C@H]1O[C@@H](O)[C@H](O)[C@@H](O)[C@@H]1O | – | inactive: 0.0592%
Clc1ccc(CSc2nnc(-c3ccccn3)n2Cc2ccco2)c(Cl)c1 | inconclusive: 39.8 µM [inhibitor, single point] | –
CCc1ccc2nc(N3C(=O)C(O)=C(C(=O)c4ccco4)C3c3cccs3)sc2c1 (centres undefined) | inconclusive: 31.6 µM [inhibitor, single point] | –
CCOC(=O)c1nn(-c2ccc(OCC)cc2)c2nc(-c3cccc(OC)c3)c(C#N)c(=O)n12 | inconclusive: 31.6 µM [inhibitor, single point] | –
COc1ccccc1-c1nc(NCCN2CCOCC2)c2ccccc2n1 | – | inactive: -3.01%
COC(=O)C1=CN(C2CC2)C=C(C(=O)OC)C1c1ccc(C(=O)OC)cc1 | inconclusive: 35.5 µM [inhibitor, single point] | –
COc1ccc(NC(=O)CN2CCN(S(=O)(=O)c3ccc(Cl)cc3)CC2)cc1Cl | – | inactive: -4.25%
CCN(CC)C(=O)CCn1nc(-c2ccc(C)cc2)c2ccccc2c1=O | inconclusive: 0.1 µM [inhibitor, full curve, poor fit] | –
CCc1ccc(N2CCN(C(=O)c3ccc4c(c3)OCO4)CC2)cc1 | inconclusive: 12.6 µM [inhibitor, partial curve, poor fit] | –
CC1=C(C)CC2C(=O)N(Cc3ccccc3)C(=O)C2C1 (centres undefined) | – | inactive: -2.08%
Cc1ccc(NC(=O)/C=C/c2cccs2)c([N+](=O)[O-])c1 | inconclusive: 7.08 µM [inhibitor, single point] | –
CCOC(=O)c1c(NC(=O)Cn2cnc3scc(-c4ccc(C)cc4)c3c2=O)sc(C)c1C | inconclusive: 0.282 µM [inhibitor, full curve] | –
Cc1oc2cc([N+](=O)[O-])c(O)c([N+](=O)[O-])c2c1C(=O)c1ccc(Cl)cc1 | inconclusive: 0.282 µM [inhibitor, full curve, poor fit] | –
COc1ccc2c(OC)c3ccoc3nc2c1OC | inconclusive: 25.1 µM [inhibitor, single point] | –
O=C(CSC1=NCCS1)NC(c1ccccc1)c1ccccc1 | inconclusive: 31.6 µM [inhibitor, single point] | –
Cc1ccc2c(c1)N(C(=O)CCC(=O)NC1CCCCCC1)CCO2 | inconclusive: 39.8 µM [inhibitor, single point] | –
O=C(CC(C(=O)O)c1cccc(Cl)c1Cl)c1ccccc1 (centres undefined) | inconclusive: 0.141 µM [inhibitor, full curve, poor fit] | –
O=C(c1ccccn1)N1CCN(c2cccc(C(F)(F)F)c2)CC1 | – | inactive: -4.37%
CC(/C=N/NC(=O)Cc1cccn1C)=C\c1ccco1 | inconclusive: 25.1 µM [inhibitor, partial curve, poor fit] | –
COC(=O)c1ccc(/C=C/c2ccc3cccc(OC)c3n2)cc1 | inconclusive: 28.2 µM [inhibitor, partial curve] | –
CCOC(=O)N1CCN(C(=O)c2ccc3c(c2)sc2nc(-c4ccccc4)cn23)CC1 | inconclusive: 3.16 µM [inhibitor, single point] | –
CCc1c(C)nc2cc(-c3ccc(Cl)cc3)[nH]n2c1=O | inconclusive: 0.794 µM [inhibitor, single point] | –

A few values from above:
Entry for CCOC(=O)N1CCN(C(=O)c2ccc3c(c2)sc2nc(-c4ccccc4)cn23)CC1 under Potency: inconclusive: 3.16 µM [inhibitor, single point]
Entry for CC(/C=N/NC(=O)Cc1cccn1C)=C\c1ccco1 under Potency: inconclusive: 25.1 µM [inhibitor, partial curve, poor fit]
